Laboratory results taken from publication doi:10.1101/2022.04.13.488151.
No constants are given. Whether binding was seen depends on the method and setting. In cells and extracts the contact can be indirect. Some results given as binding are weak or reduced against the parent protein; the word gives no strength. Each block holds one binder with its values, some of them ahead of it.

Target: T1, Sun4 (mouse (endogenous in testis cells)) (UniProt Q9JJF2)
T1 sequence: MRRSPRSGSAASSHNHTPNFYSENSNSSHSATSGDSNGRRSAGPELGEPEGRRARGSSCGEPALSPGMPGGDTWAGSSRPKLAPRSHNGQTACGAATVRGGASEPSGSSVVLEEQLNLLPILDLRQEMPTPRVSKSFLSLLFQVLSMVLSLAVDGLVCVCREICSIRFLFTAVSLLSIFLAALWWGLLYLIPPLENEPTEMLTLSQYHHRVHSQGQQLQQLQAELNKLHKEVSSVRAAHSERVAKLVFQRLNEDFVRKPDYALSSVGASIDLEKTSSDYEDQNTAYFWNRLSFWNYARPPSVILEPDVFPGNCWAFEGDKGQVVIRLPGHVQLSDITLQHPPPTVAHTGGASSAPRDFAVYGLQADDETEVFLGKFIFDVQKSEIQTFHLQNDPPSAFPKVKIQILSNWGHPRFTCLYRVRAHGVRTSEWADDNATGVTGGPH
Assay: co-IP

B2: Sun3 (protein, UniProt Q5SS91 1-320)
chain: MLTRSWKIILSTVFISTFLLVGLLNHQWLKETEFPQKPRQLYTVIAEYGSRLYNYQARLRMPKEQQELLKKESQTLENNFREILFLIEQIDVLKALLKDMKDGVHNHSLPVHRDAVQDQATTDVLDEEMSNLVHYVLKKFRGDQIQLADYALKSAGASVIEAGTSESYKNNKAKLYWHGIGFLNYEMPPDMILQPDVHPGKCWAFPGSQGHILIKLARKIIPTAVTMEHISEKVSPSGNISSAPKEFSVYGVMKKCEGEEIFLGQFIYNKMEATIQTFELQNEASESLLCVKLQILSNWGHPKYTCLYRFRVHGIPSDYT
binding: binds

B4: Sun1 (protein, UniProt Q9D666 1-913)
chain: MDFSRLHTYTPPQCVPENTGYTYALSSSYSSDALDFETEHKLEPVFDSPRMSRRSLRLVTTASYSSGDSQAIDSHISTSRATPAKGRETRTVKQRRSASKPAFSINHLSGKGLSSSTSHDSSCSLRSATVLRHPVLDESLIREQTKVDHFWGLDDDGDLKGGNKAATQGNGELAAEVASSNGYTCRDCRMLSARTDALTAHSAIHGTTSRVYSRDRTLKPRGVSFYLDRTLWLAKSTSSSFASFIVQLFQVVLMKLNFETYKLKGYESRAYESQSYETKSHESEAHLGHCGRMTAGELSRVDGESLCDDCKGKKHLEIHTATHSQLPQPHRVAGAMGRLCIYTGDLLVQALRRTRAAGWSVAEAVWSVLWLAVSAPGKAASGTFWWLGSGWYQFVTLISWLNVFLLTRCLRNICKVFVLLLPLLLLLGAGVSLWGQGNFFSLLPVLNWTAMQPTQRVDDSKGMHRPGPLPPSPPPKVDHKASQWPQESDMGQKVASLSAQCHNHDERLAELTVLLQKLQIRVDQVDDGREGLSLWVKNVVGQHLQEMGTIEPPDAKTDFMTFHHDHEVRLSNLEDVLRKLTEKSEAIQKELEETKLKAGSRDEEQPLLDRVQHLELELNLLKSQLSDWQHLKTSCEQAGARIQETVQLMFSEDQQGGSLEWLLEKLSSRFVSKDELQVLLHDLELKLLQNITHHITVTGQAPTSEAIVSAVNQAGISGITEAQAHIIVNNALKLYSQDKTGMVDFALESGGGSILSTRCSETYETKTALLSLFGVPLWYFSQSPRVVIQPDIYPGNCWAFKGSQGYLVVRLSMKIYPTTFTMEHIPKTLSPTGNISSAPKDFAVYGLETEYQEEGQPLGRFTYDQEGDSLQMFHTLERPDQAFQIVELRVLSNWGHPEYTCLYRFRVHGEPIQ
binding: no binding

Results, then the binder that gave them:

binding: binds
B1: Lamin B3 (protein, UniProt P21619-2 1-474)
chain: MGESESMRGTGEGCGRDCPEAARPLMETVEGALPELRGRPLREYVKRRPRGLGKTPVEDPVKSEGAVGYPRTWNNHLRVPTREQEVRETRRRHERRLVEVDSSRQQEYDFKMAQALEDLRSQHDEQVRLYRVELEQTYQAKLDNAKLLSDQNDKAAHAAREELKEARMRVESLSYQLLGLQKQASAAENHIHELEEALAGERDKFRKMLDAKEQEMTEVRDAMQQQLAEYQELLDIKLALDMEISAYRKLLEGEEERLKLSPSPSSRITISRATSSSSSSSGVGMSVGQGRGKRRRLETEDTSGSPSRASRVSSGSRLAQQTVATGVVNIDEVDPEGRFVRLKNSSDKDQSLGNWRIKRQVLEGEDIAYKFTPKYVLRAGQTVTVWAAGAGATHSPPSTLVWKSQTNWGPGESFRTALVSADGEEVAVKAAKHSSVQGRENGEEEEEEEAEFGEEDLFHQQGDPRTTSRGCRLM

binding: no binding
B3: Lap2 (protein, UniProt Q61029 1-452)
chain: MPEFLEDPSVLTKDKLKSELVANNVTLPAGEQRKDVYVQLYLQHLTARNRPPLAAGANSKGPPDFSSDEEREPTPVLGSGASVGRGRGAVGRKATKKTDKPRLEDKDDLDVTELSNEELLDQLVRYGVNPGPIVGTTRKLYEKKLLKLREQGTESRSSTPLPTVSSSAENTRQNGSNDSDRYSDNDEDSKIELKLEKREPLKGRAKTPVTLKQRRTEHNQSYSQAGVTETEWTSGSSTGGPLQALTRESTRGSRRTPRKRVETSQHFRIDGAVISESTPIAETIKASSNESLVANRLTGNFKHASSILPITEFSDITRRTPKKPLTRAEVGEKTEERRVDRDILKEMFPYEASTPTGISASCRRPIKGAAGRPLELSDFRMEESFSSKYVPKYAPLADVKSEKTKKRRSVPMWIKMLLFALVAVFLFLVYQAMETNQGNPFTNFLQDTKISN
